These are yes or no findings as the source states them, for the method shown. Binding seen in cells or lysates may run through a third protein. Some entries that bind do so weakly or less than the wild type.

Amino acid sequences for entries named in this document (tags omitted).
UniProt Q14289: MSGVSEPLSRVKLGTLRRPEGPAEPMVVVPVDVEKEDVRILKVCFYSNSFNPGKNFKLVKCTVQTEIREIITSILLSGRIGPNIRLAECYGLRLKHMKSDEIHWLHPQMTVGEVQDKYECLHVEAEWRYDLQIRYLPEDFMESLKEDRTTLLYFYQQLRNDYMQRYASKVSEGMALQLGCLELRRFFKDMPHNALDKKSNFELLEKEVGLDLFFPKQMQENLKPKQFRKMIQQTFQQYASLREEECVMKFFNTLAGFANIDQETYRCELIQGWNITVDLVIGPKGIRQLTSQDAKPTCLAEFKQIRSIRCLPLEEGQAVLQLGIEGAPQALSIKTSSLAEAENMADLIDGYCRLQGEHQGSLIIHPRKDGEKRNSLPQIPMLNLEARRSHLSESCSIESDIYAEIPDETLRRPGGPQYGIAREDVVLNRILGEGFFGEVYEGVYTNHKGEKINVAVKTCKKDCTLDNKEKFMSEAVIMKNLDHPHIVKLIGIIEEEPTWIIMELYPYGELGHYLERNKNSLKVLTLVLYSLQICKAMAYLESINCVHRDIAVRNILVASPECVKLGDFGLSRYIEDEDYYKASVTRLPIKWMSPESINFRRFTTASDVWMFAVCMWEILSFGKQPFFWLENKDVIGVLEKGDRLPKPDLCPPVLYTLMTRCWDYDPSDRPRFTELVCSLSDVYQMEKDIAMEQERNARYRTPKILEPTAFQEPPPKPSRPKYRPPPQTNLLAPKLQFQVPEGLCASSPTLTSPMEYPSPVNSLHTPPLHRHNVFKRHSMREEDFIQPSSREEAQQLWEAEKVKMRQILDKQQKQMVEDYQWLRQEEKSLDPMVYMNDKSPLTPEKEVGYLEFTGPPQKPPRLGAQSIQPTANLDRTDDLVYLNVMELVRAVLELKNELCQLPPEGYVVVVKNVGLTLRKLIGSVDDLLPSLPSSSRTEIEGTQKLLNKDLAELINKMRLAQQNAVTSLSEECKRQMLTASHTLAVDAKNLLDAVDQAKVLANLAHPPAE
UniProt Q8TDY2: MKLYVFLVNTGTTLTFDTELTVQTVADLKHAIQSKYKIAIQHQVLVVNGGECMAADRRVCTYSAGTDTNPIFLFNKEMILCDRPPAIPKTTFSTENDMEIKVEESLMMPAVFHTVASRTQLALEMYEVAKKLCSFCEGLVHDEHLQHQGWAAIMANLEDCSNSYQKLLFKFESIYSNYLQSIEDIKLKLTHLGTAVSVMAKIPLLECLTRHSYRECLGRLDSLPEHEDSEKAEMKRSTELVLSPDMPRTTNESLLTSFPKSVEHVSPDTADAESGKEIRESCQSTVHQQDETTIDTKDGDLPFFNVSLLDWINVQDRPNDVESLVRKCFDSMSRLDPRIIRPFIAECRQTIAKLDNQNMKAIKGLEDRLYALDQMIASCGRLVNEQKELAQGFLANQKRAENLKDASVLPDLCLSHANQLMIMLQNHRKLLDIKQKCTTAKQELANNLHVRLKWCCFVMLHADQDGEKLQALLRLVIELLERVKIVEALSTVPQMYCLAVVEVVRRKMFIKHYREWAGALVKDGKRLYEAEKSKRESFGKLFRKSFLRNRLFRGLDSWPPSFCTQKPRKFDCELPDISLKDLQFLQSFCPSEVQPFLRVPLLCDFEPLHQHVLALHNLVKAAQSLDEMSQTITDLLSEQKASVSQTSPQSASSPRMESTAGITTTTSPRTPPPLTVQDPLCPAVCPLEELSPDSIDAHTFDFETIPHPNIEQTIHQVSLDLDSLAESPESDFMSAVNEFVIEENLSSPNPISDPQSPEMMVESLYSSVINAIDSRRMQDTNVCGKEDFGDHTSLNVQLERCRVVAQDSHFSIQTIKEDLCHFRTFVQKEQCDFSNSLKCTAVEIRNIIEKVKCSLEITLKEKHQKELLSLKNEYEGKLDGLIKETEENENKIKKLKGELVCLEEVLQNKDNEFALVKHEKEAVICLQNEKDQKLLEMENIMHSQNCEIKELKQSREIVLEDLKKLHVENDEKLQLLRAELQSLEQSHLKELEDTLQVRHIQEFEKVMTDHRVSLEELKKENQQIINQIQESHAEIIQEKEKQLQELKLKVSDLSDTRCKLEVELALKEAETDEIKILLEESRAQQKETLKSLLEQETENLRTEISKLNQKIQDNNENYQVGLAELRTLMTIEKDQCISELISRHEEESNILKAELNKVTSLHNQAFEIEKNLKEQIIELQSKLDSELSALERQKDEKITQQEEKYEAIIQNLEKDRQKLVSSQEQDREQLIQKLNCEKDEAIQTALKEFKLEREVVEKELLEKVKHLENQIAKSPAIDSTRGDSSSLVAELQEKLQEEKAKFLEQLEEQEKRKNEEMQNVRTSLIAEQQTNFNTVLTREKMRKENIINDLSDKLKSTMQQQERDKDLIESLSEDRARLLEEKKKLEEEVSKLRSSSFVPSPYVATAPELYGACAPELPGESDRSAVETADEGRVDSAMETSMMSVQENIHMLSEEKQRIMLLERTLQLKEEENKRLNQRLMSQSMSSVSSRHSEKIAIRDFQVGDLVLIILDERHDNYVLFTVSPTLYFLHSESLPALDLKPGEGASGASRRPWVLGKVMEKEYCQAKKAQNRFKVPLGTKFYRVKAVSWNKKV

Experiment [1] deals with proline-rich tyrosine kinase 2 (Pyk2) (human (endogenous in U-87MG and primary human brain MvEC)) (UniProt Q14289). Briefly: co-IP; endogenous proteins from primary human brain MvEC in complete media, treated with siFIP200 or mutant siFIP200 (72-96 h); 1% NP40 lysis buffer; 50 to 200 ug lysate with 5-10 ug antibody, TrueBlot anti-rabbit IP beads overnight at 4°C; immunoblot.

For experiment [2] the target is unchanged. The experiment can be described thus: co-IP; endogenous proteins from U-87MG cells in complete media, treated with siFIP200 or mutant siFIP200 (72-96 h); 1% NP40 lysis buffer; 50 to 200 ug lysate with 5-10 ug antibody, TrueBlot anti-rabbit IP beads overnight at 4°C; immunoblot.

As for “focal adhesion kinase family interacting protein of 200-kDa (FIP200) (from UniProt Q8TDY2 1-1594)”, the binding result in experiment [1] and in experiment [2] was “binds” in each case.

The values are drawn from article PMC3094350.
